Laboratory results: US6727237B2, “Inhibitors of bacterial NAD synthetase” (priority 1998, dated 2004)
Where “and” joins values, the source holds several entries; their conditions need not be identical. Equal entries are not always repeated. The name of at least one read-out is uncertain.

System: Staphylococcus epidermitis
Test: Bacterial growth inhibition screen in LB media (absorbance 595 nm), percent inhibition
Settings: S. epidermitis; concentration screened 10 uM

COC(=O)c1ccc[n+](CCCCCCCCn2ccc3cc([N+](=O)[O-])ccc32)c1 [Compound 13]
% Inhibition: 97.80% and 96.77%
